Values from PubChem BioAssay AID1259424 (University of Nebraska Medical Center, 2018).

Test: 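Find knockdowns that reproduce the expression shifts seen after KSR1 loss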 (primary screen)
System: human HCT116 colon cancer cells
Knock-down reagent: siRNA pool against human genes, 50 nM
Detection: 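Log2 levels of six mRNAs (branched-DNA multiplex), adjusted by two reference genes and the non-targeting median, then scored against the average KSR1 knockdown pattern as Pearson r and euclidean distance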
Direction: mean correlation with KSR1 profile and KSR1 correlation: higher = expression change more like KSR1 knockdown; mean distance from KSR1 profile: higher = expression change less like KSR1 knockdown
Here is an unselected part of about 14,000 reagents tested. 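Higher correlation or smaller distance means closer resemblance to KSR1 loss; control wells, including KSR1 knockdowns, recur on many plates.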 Reagents against one gene are numbered here. The record does not give: the time to read-out.

no.	Target gene	pool no.	mean correlation with KSR1 profile	mean distance from KSR1 profile	KSR1 correlation, replicate 1	KSR1 correlation, replicate 2	KSR1 correlation, replicate 3
1	SLC2A3	1	-0.119	1.18	0.115	-0.257	-0.249
2	RORB	1	-0.708	1.74	-0.371	-0.785	-0.7
3	RNF216	1	0.658	0.893	0.618	0.567	0.672
4	VGLL4	1	0.736	2.84	0.803	0.685	0.714
5	RNASE1	1	-0.341	1.66	-0.228	-0.545	-0.123
6	ATOSB	1	0.246	1.89	0.0654	0.195	0.319
7	RNF186	1	0.169	1.21	0.369	0.287	0.295
8	AVL9	1	-0.148	2.24	-0.0765	-0.389	0.0243
9	MAN2B2	1	0.136	2.42	0.161	0.106	0.0688
10	RPS6KA5	1	-0.0703	2.36	0.106	-0.161	-0.421
11	AVPR2	1	0.23	3.3	0.258	0.308	0.0154
12	ATG4C	1	0.0241	1.82	-0.138	0.0736	-0.224
13	DDX23	1	-0.334	1.73	-0.469	0.357	-0.0905
14	MYL2	1	-0.715	1.71	-0.639	-0.641	-0.428
15	FERMT2	1	-0.218	3.26	-0.316	-0.218	-0.182
16	AIPL1	1	0.411	1.22	0.576	0.549	0.17
17	MAGEH1	1	0.143	2.13	0.214	-0.215	0.207
18	WRN	1	0.209	3.79	0.35	0.0608	0.0607
19	GPR82	1	0.805	1.08	0.803	0.795	0.702
20	GNL3L	1	-0.587	1.67	-0.332	-0.655	-0.759
21	POU1F1	1	0.422	2.15	0.371	0.724	0.491
22	PCDHGB4	1	0.675	1.05	0.568	0.615	0.478
23	IFIT3	1	-0.513	2.34	-0.442	-0.761	-0.588
24	GATB	1	-0.6	1.84	-0.495	-0.466	-0.795
25	BTF3P11	1	-0.0779	1.77	0.206	0.218	-0.352
26	DDX6	1	-0.728	3.4	-0.582	-0.774	-0.719
27	BRD3	1	-0.085	3.81	-0.234	-0.231	0.135
28	RERE	1	0.0351	2.48	0.519	0.407	-0.417
29	GOLPH3	1	-0.0273	3.27	-0.12	0.321	-0.0368
30	PAPOLB	1	-0.0412	3.09	-0.162	-0.229	0.142
31	ADGRF1	1	-0.268	2.6	-0.118	-0.469	-0.542
32	ADGRF1	2	0.408	1.55	0.188	0.626	0.432
33	MIR9-1HG	1	-0.252	2.01	-0.101	-0.323	-0.201
34	HDLBP	1	-0.607	1.4	-0.777	-0.457	-0.409

Already shown: entries from further up.
no.	Target gene	pool no.	mean correlation with KSR1 profile	mean distance from KSR1 profile	KSR1 correlation, replicate 1	KSR1 correlation, replicate 2	KSR1 correlation, replicate 3
5	RNASE1	1	-0.341	1.66	-0.228	-0.545	-0.123
6	ATOSB	1	0.246	1.89	0.0654	0.195	0.319
